Reference: patent US20210302413A1 (Johns Hopkins, published 2021)
These are yes or no findings as the source states them, for the method shown. Some entries that bind do so weakly or less than the wild type.

Key:
[1] = biological target: T1, endogenous human zinc transporter 8 (ZnT8) in EndoC-βH1 cells (human) (UniProt Q8IWU4); test: immunoblot of total EndoC-βH1 cell lysate
T1 sequence (looked up): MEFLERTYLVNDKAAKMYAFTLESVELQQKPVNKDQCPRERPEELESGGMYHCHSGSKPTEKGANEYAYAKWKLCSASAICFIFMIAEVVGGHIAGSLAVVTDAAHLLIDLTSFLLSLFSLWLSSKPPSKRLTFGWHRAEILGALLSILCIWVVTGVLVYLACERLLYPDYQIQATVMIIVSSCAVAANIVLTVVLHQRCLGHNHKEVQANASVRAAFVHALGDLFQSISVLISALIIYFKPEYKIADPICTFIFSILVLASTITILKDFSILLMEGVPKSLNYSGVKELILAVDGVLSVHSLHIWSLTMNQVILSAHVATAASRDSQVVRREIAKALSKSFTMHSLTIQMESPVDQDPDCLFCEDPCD

[2] = biological target: T1, endogenous human zinc transporter 8 (ZnT8) in EndoC-βH1 cells (human); test: capture of EndoC-βH1 liposomes on mAb20-PEG5K-Dynabeads, immunoblot
[3] = biological target: T1, endogenous human zinc transporter 8 (ZnT8) in EndoC-βH1 cells (human); test: in-cell ELISA on fixed, permeabilised EndoC-βH1 cells, HRP chemiluminescence
[4] = biological target: T1, endogenous human zinc transporter 8 (ZnT8) in EndoC-βH1 cells (human); test: immunoblot of liposomes from EndoC-βH1 cells probed with biotinylated mAb20 and HRP-streptavidin
[5] = biological target: T1, endogenous human zinc transporter 8 (ZnT8) in EndoC-βH1 cells (human); test: immunoblot of total SDS lysate of EndoC-βH1 cells, probed with mAb20 and an anti-tubulin antibody together
[6] = biological target: T1, endogenous human zinc transporter 8 (ZnT8) in EndoC-βH1 cells (human); test: capture of liposomes from EndoC-βH1 cells on mAb20-PEG5K-Dynabeads, SDS elution, immunoblot probed with mAb20
[7] = biological target: T1, endogenous human zinc transporter 8 (ZnT8) in EndoC-βH1 cells (human); test: confocal immunofluorescence of fixed and permeabilised EndoC-βH1 cells, mAb20 1:600 with anti-mouse secondary antibody, co-stained for IA2
[8] = biological target: T1, endogenous human zinc transporter 8 (ZnT8) in EndoC-βH1 cells (human); test: confocal immunofluorescence of fixed and permeabilised EndoC-βH1 cells, mAb20 1:600 with anti-mouse secondary antibody, co-stained for BAP31
[9] = biological target: T1, endogenous human zinc transporter 8 (ZnT8) in EndoC-βH1 cells (human); test: confocal immunofluorescence of fixed and permeabilised EndoC-βH1 cells, mAb20 1:600 with anti-mouse secondary antibody, co-stained for VAMP2
[10] = biological target: T1, endogenous human zinc transporter 8 (ZnT8) in EndoC-βH1 cells (human); test: confocal immunofluorescence of fixed and permeabilised EndoC-βH1 cells, mAb20 1:600 with anti-mouse secondary antibody, co-stained for TMED3
[11] = biological target: T1, endogenous human zinc transporter 8 (ZnT8) in EndoC-βH1 cells (human); test: in-cell ELISA on fixed and permeabilised EndoC-βH1 cells, mAb20 at 1:600, HRP anti-mouse IgG, chemiluminescence; the number of cells is varied
[12] = biological target: T1, endogenous human zinc transporter 8 (ZnT8) in EndoC-βH1 cells (human); test: confocal immunofluorescence of fixed and permeabilised EndoC-βH1 cells, mAb20 1:600 with anti-mouse secondary antibody, co-stained for insulin
[13] = biological target: T1, endogenous human zinc transporter 8 (ZnT8) in EndoC-βH1 cells (human); test: confocal immunofluorescence of fixed and permeabilised EndoC-βH1 cells, mAb20 1:600 with anti-mouse secondary antibody, co-stained for Golgin97

Measured: binding

B1: anti-ZnT8 monoclonal antibody mAb20 (antibody, mouse IgG1, kappa, V domains shown)
VH: QIQLVQSGPELKKPGETVKISCKASGYIFTNYPMHWVKQAPGKGLKWMGWINTYSGVPTHADDFKGRFAFSLETSANSAFLQINNLKNEDTATYFCTRSRITPTGGYAMDYWGQGTSVTVSS
VL: DVVMTQTPLSLPVSLGDQASISCRSSQSLVHSNGNTYLHWYLQKPGQSPNLLISKVSNRFSGVPERFSGSGSGTDFTLKISRVEAEDLGVYFCSQNTHVPWTFGGGTKLEIKR
notes: Mouse monoclonal antibody; Used free (1:600 of a 1 mg/ml stock), biotinylated, or crosslinked to Dynabeads through NHS-PEG5K-NHS; also called mouse mAb20; biotinylated mAb20
binds: all assays above
